Measured values as given in paper doi:10.1101/2022.05.17.492159.
These are yes or no findings as the source states them, for the method shown. In cells and extracts the contact can be indirect. Some entries that bind do so weakly or less than the wild type.

Protein sequences, listed by entry. Tags and fused reporters are not part of them.
UniProt Q9NQE9: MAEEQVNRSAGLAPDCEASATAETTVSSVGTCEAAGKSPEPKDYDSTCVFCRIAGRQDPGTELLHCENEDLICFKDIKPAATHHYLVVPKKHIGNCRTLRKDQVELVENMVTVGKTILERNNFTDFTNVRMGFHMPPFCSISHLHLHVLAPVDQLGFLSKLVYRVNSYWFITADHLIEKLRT
UniProt P51784: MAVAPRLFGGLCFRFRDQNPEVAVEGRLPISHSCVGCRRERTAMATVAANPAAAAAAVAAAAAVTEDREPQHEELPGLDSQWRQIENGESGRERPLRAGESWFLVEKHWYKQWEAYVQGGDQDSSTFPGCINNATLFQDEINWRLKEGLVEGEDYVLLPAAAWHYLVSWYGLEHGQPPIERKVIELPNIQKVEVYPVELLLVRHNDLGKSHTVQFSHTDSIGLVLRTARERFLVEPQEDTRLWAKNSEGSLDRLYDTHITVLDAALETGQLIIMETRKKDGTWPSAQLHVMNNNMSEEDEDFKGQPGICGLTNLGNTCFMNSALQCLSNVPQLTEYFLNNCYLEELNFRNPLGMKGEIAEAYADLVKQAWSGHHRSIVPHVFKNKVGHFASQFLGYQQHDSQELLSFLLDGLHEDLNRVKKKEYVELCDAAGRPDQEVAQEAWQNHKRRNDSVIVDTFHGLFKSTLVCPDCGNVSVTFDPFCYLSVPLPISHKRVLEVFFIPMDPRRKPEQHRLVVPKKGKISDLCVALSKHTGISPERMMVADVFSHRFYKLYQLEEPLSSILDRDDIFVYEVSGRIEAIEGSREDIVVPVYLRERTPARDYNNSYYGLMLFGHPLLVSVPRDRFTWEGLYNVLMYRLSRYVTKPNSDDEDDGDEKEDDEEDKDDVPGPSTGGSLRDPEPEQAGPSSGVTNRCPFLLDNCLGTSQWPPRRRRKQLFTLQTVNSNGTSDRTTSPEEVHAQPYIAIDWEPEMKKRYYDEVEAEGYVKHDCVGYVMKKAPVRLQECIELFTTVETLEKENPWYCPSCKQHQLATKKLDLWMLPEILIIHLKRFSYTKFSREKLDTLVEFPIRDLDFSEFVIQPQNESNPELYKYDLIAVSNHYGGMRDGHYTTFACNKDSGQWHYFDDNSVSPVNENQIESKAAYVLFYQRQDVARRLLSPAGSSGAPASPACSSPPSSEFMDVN
UniProt P10415: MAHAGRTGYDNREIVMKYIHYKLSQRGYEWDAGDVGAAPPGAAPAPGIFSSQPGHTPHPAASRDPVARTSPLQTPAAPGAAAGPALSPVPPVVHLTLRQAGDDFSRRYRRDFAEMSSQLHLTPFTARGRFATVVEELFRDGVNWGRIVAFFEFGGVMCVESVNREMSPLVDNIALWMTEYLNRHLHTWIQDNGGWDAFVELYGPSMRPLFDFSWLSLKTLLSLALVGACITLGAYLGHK

Molecular target: histidine triad nucleotide binding protein 3 (HINT3) (human (endogenous in HPAECs)) (UniProt Q9NQE9)
Assay: co-IP

binding	Substance
binds	ubiquitin-specific proteases 11 (USP11) (from UniProt P51784 1-963) (enzyme)
binds	B-cell lymphoma 2 (BCL2) (from UniProt P10415 1-239)
